Data source: PubChem BioAssay AID1259405 (NCATS, 2018)

Assay: 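Knock-downs that lift recombinant protein yield in hamster ovary cells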 (primary screen)
Cells: Chinese hamster CHO-K1 ovary cells with stable secreted eGFP expression
Reagent: single siRNA against mouse genes, 0.8 pmol siRNA per well (2 µl of 400 nM stock)
Duration: 3 days
Read-out: 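Percent of the per-plate non-targeting control median for intracellular GFP per well by laser scanning cytometry and for cell viability by ATP luminescence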
Reading the numbers: GFP, % of control: higher = more GFP per well, higher productivity; viability (ATP), % of control: higher = more viable cells (more ATP)
Rule for the call: 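a knock-down is called active if GFP reaches 120% or more of non-targeting control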
The deposit covers about 50,000 reagents; this is an unselected part. About 4,000 of them (8%) count as active. 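Mouse siRNA library applied to hamster cells; one well for each siRNA.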 Entries without a mark were called inactive. The numbers tell different reagents against one gene apart.

no.	gene symbol	reagent	GFP, % of control	viability (ATP), % of control
1	Map3k3 (mitogen-activated protein kinase kinase kinase 3)	1	123 (active)	79.9
2	Map3k3 (mitogen-activated protein kinase kinase kinase 3)	2	74.6	58.1
3	Map3k3 (mitogen-activated protein kinase kinase kinase 3)	3	61.2	78.4
4	Cdc26 (cell division cycle 26)	1	102	106
5	Cdc26 (cell division cycle 26)	2	105	106
6	Cdc26 (cell division cycle 26)	3	89.6	89.9
7	Rgs17 (regulator of G-protein signaling 17)	1	94.9	81.1
8	Rgs17 (regulator of G-protein signaling 17)	2	167 (active)	101
9	Rgs17 (regulator of G-protein signaling 17)	3	32	48.4
10	Zzz3 (zinc finger, ZZ domain containing 3)	1	111	69.2
11	Zzz3 (zinc finger, ZZ domain containing 3)	2	89.3	61
12	Zzz3 (zinc finger, ZZ domain containing 3)	3	92.4	97.2
13	Lncpint (long non-protein coding RNA, Trp53 induced transcript)	1	83.9	80.6
14	Lncpint (long non-protein coding RNA, Trp53 induced transcript)	2	63.4	47.3
15	Lncpint (long non-protein coding RNA, Trp53 induced transcript)	3	66.4	84.6
16	Txlng (taxilin gamma)	1	82.6	47.8
17	Txlng (taxilin gamma)	2	105	77.9
18	Txlng (taxilin gamma)	3	89.7	56.3
19	Aamp (angio-associated migratory protein)	1	60.5	49.4
20	Aamp (angio-associated migratory protein)	2	148 (active)	96.4
21	Aamp (angio-associated migratory protein)	3	92.8	89.9
22	Nfia (nuclear factor I/A)	1	92.5	93.1
23	Nfia (nuclear factor I/A)	2	50.4	81.6
24	Nfia (nuclear factor I/A)	3	65.9	109
25	Cnbp (cellular nucleic acid binding protein)	1	60.2	64.1
26	Cnbp (cellular nucleic acid binding protein)	2	124 (active)	86.9
27	Cnbp (cellular nucleic acid binding protein)	3	101	95.6
28	Zfand6 (zinc finger, AN1-type domain 6)	1	49	74.1
29	Zfand6 (zinc finger, AN1-type domain 6)	2	61.8	82.1
30	Ca2 (carbonic anhydrase 2)	1	106	113
31	Ca2 (carbonic anhydrase 2)	2	65.3	72.4
32	Tmem81 (transmembrane protein 81)	1	89.9	84.4
33	Tmem81 (transmembrane protein 81)	2	134 (active)	117
34	Tmem81 (transmembrane protein 81)	3	112	94.2
35	Gigyf1 (GRB10 interacting GYF protein 1)	1	97.5	78.1
36	Gigyf1 (GRB10 interacting GYF protein 1)	2	80.7	69.9
37	Gigyf1 (GRB10 interacting GYF protein 1)	3	86.3	71.8
38	Ren1 (renin 1 structural)	1	42.9	48.4
39	Ren1 (renin 1 structural)	2	31.5	42.4
40	Ren1 (renin 1 structural)	3	70.2	76.2
41	Pigr (polymeric immunoglobulin receptor)	1	121 (active)	129
42	Pigr (polymeric immunoglobulin receptor)	2	67.4	55.2
43	Pigr (polymeric immunoglobulin receptor)	3	71.6	44.7
44	Mettl8 (methyltransferase 8, methylcytidine)	1	100	49.2
45	Mettl8 (methyltransferase 8, methylcytidine)	2	76.6	71.1
46	Mettl8 (methyltransferase 8, methylcytidine)	3	95	76.4
47	Or8s5 (olfactory receptor family 8 subfamily S member 5)	1	38.3	58.4
48	Or8s5 (olfactory receptor family 8 subfamily S member 5)	2	91.6	89.5
49	Or8s5 (olfactory receptor family 8 subfamily S member 5)	3	101	108
50	Gtf3c6 (general transcription factor IIIC, polypeptide 6, alpha)	1	80	87.1
51	Gtf3c6 (general transcription factor IIIC, polypeptide 6, alpha)	2	86.2	95.6
52	Gtf3c6 (general transcription factor IIIC, polypeptide 6, alpha)	3	67.3	50.8
53	Ccr10 (C-C motif chemokine receptor 10)	1	74.7	62.9
54	Ccr10 (C-C motif chemokine receptor 10)	2	84.4	69.9
55	Ccr10 (C-C motif chemokine receptor 10)	3	116	73.8
56	Pard3 (par-3 family cell polarity regulator)	1	54.3	78.7
57	Pard3 (par-3 family cell polarity regulator)	2	102	108
58	Pard3 (par-3 family cell polarity regulator)	3	71.9	141
59	Gm5334 (predicted pseudogene 5334)	1	68.7	72.6
60	Gm5334 (predicted pseudogene 5334)	2	81.8	81.8
61	Gm5334 (predicted pseudogene 5334)	3	128 (active)	110
62	Rapsn (receptor-associated protein of the synapse)	1	160 (active)	117
63	Rapsn (receptor-associated protein of the synapse)	2	111	79
64	Or6k6 (olfactory receptor family 6 subfamily K member 6)	1	57.6	63.2
65	Or6k6 (olfactory receptor family 6 subfamily K member 6)	2	54.3	73
66	Or6k6 (olfactory receptor family 6 subfamily K member 6)	3	24.5	74.4
67	9330154K18Rik (RIKEN cDNA 9330154K18 gene)	1	48.4	48.2
68	9330154K18Rik (RIKEN cDNA 9330154K18 gene)	2	64.2	76.7
69	9330154K18Rik (RIKEN cDNA 9330154K18 gene)	3	87.1	100
70	Jun (Jun proto-oncogene, AP-1 transcription factor subunit)	1	72.1	75
71	Jun (Jun proto-oncogene, AP-1 transcription factor subunit)	2	69	63.6
72	Jun (Jun proto-oncogene, AP-1 transcription factor subunit)	3	85.5	110
73	Or2o1 (olfactory receptor family 2 subfamily O member 1)	1	112	101
74	Or2o1 (olfactory receptor family 2 subfamily O member 1)	2	95.6	66.6
75	Or2o1 (olfactory receptor family 2 subfamily O member 1)	3	36.5	73.8
76	Ginm1 (glycoprotein integral membrane 1)	1	78.1	74.8
77	Ginm1 (glycoprotein integral membrane 1)	2	86	118
78	Ginm1 (glycoprotein integral membrane 1)	3	74.5	113
79	Cdc73	1	56.2	71.5
80	Cdc73	2	40.6	37.7
81	Cdc73	3	156 (active)	107
82	Kcnip1 (Kv channel-interacting protein 1)	1	62.4	69.6
83	Kcnip1 (Kv channel-interacting protein 1)	2	54.9	57.1
84	Kcnip1 (Kv channel-interacting protein 1)	3	94.9	64
85	Ccdc9 (coiled-coil domain containing 9)	1	50.9	59.6
86	Ccdc9 (coiled-coil domain containing 9)	2	96.3	72.5
87	Ccdc9 (coiled-coil domain containing 9)	3	74.1	111
88	Sat1 (spermidine/spermine N1-acetyl transferase 1)	1	82	102
89	Sat1 (spermidine/spermine N1-acetyl transferase 1)	2	120 (active)	87.6
90	Sat1 (spermidine/spermine N1-acetyl transferase 1)	3	84.9	84.8
91	Zfp532 (zinc finger protein 532)	1	66.3	92.3
92	Zfp532 (zinc finger protein 532)	2	102	97.2
93	Zfp532 (zinc finger protein 532)	3	61.3	65.4
94	Diaph3 (diaphanous related formin 3)	1	70.4	74.7
95	Diaph3 (diaphanous related formin 3)	2	69.1	66.9
96	Diaph3 (diaphanous related formin 3)	3	57.6	71.3
97	Magi1	1	72.8	46
98	Magi1	2	71.9	78.2
99	Magi1	3	94.7	71
100	Iars2 (isoleucine-tRNA synthetase 2, mitochondrial)	1	77.4	78.1
101	Iars2 (isoleucine-tRNA synthetase 2, mitochondrial)	2	119	64.7
102	C1galt1c1 (C1GALT1-specific chaperone 1)	1	100	89.7
103	C1galt1c1 (C1GALT1-specific chaperone 1)	2	57.5	83.2
104	C1galt1c1 (C1GALT1-specific chaperone 1)	3	48.3	52.4
105	Igha (immunoglobulin heavy constant alpha)	1	60.7	62.9
106	Igha (immunoglobulin heavy constant alpha)	2	99.2	82.8
107	Igha (immunoglobulin heavy constant alpha)	3	163 (active)	61
